Twelve molecules from PubChem BioAssay AID272 (DTP/NCI, 2004) can be followed below.

The list is a part of this screen's results and no random one: it is rich in T/C values a quarter to a half above the control, in often repeated tests (any T/C) and in doses without a T/C. Further doses and runs are listed elsewhere. T/C is the treated group as % of the vehicle group. Schedules are NCI's codes, taken here to give the interval after Q, in days (D) or hours (H), and the number of doses after X. Some doses have a count of surviving animals in place of a T/C: the source files T/C as zero there, which appears to mark a toxic dose or a test without result, not a measured value. Some survivor counts are full or nearly so, which does not show that the dose was tolerated: survival well below the control is almost never listed, so the zero probably covers shortened survival too. Counts of survivors are from the toxicity check (mostly the fifth day) where no day follows; animals may have died later. Some entries were tested several times; the results are listed from low to high. For survival time, this PubChem deposit counts one and a half times the control or more as active, and values a quarter to a half above the control carry no call in these data; other NCI protocols may use other cut-offs. Some schedules carry Z or #; the key to these is not given. Some T/C values are followed by the survivors on the day toxicity was checked, most often the fifth; without a count, all were alive then.

The test has as its system Lewis lung carcinoma i.m., BDF1 mice, T/C %. The test is described as follows: NCI In Vivo Anticancer Drug Screen. Data for tumor model Lewis Lung Carcinoma (intramuscular) in B6D2F1 (BDF1) mice. Here is the method:
The antitumor activity of compounds was measured in mice bearing transplantable tumors. Survival or tumor size were measured and the results are expressed as the measurement made in the treated group (T) divided by the measurement made in the vehicle treated control group (C). The tumor model used in this assay is Lewis Lung Carcinoma (intramuscular) in B6D2F1 (BDF1) mice

Setting [1] is: T/C endpoint: median survival time, dose: 200.0 mg/kg/injection, schedule: Q01DX011 (ip), vehicle: saline, higher T/C = longer survival.
Setting [2] is: T/C endpoint: median survival time, dose: 800.0 mg/kg/injection, schedule: Q01DX011 (ip), vehicle: saline, higher T/C = longer survival.
Where [3] appears, read: T/C endpoint: median survival time, dose: 8.0 mg/kg/injection, schedule: Q01DX011 (ip), vehicle: saline, higher T/C = longer survival.
Setting [4] is: T/C endpoint: median survival time, dose: 0.78 mg/kg/injection, schedule: Q01DX011 (ip), vehicle: Klucel (hydroxypropylcellulose) (HPC), higher T/C = longer survival.

Regarding `CN(N=O)C(=O)N[C@@H](C=O)[C@@H](O)[C@H](O)[C@H](O)CO`, the survivor count reads like this: (T/C endpoint: mean tumor weight, dose: 100.0 mg/kg/injection, schedule: Q01DX011 (ip), vehicle: saline, higher T/C = larger tumour) 4 of 8; (T/C endpoint: median survival time, dose: 100.0 mg/kg/injection, schedule: Q01DX011 (ip), vehicle: saline, higher T/C = longer survival) 4 of 8; under setting [1], 0 of 8; (T/C endpoint: median survival time, dose: 400.0 mg/kg/injection, schedule: Q01DX011 (ip), vehicle: saline, higher T/C = longer survival) 0 of 8; under setting [2], 0 of 8.
Take `CC(=O)[C@@]1(O)CC[C@H]2[C@@H]3C[C@H](C)C4=CC(=O)C=C[C@]4(C)[C@@]3(F)[C@@H](O)C[C@@]21C`: the survivor count (T/C endpoint: mean tumor weight, dose: 100.0 mg/kg/injection, schedule: Q01DX011 (ip), vehicle: steroid suspending solution, higher T/C = larger tumour) is reported as 4 of 8; the survivor count (T/C endpoint: median survival time, dose: 12.5 mg/kg/injection, schedule: Q01DX011 (ip), vehicle: steroid suspending solution, higher T/C = longer survival) is listed as 6 of 8; the survivor count (T/C endpoint: median survival time, dose: 50.0 mg/kg/injection, schedule: Q01DX011 (ip), vehicle: steroid suspending solution, higher T/C = longer survival) is 6 of 8 and 7 of 8; the survivor count (T/C endpoint: median survival time, dose: 100.0 mg/kg/injection, schedule: Q01DX011 (ip), vehicle: steroid suspending solution, higher T/C = longer survival) is 3 of 8 and 4 of 8.
With `FC(F)c1nc2nc(Cl)c(Cl)nc2[nH]1`, the survivor count is, setting by setting: under setting [3], 7 of 8; (T/C endpoint: median survival time, dose: 16.0 mg/kg/injection, schedule: Q01DX011 (ip), vehicle: saline, higher T/C = longer survival) 7 of 8; (T/C endpoint: median survival time, dose: 32.0 mg/kg/injection, schedule: Q01DX011 (ip), vehicle: saline, higher T/C = longer survival) 8 of 8; (T/C endpoint: median survival time, dose: 128.0 mg/kg/injection, schedule: Q01DX011 (ip), vehicle: saline, higher T/C = longer survival) 3 of 8.
As to `C1OC1CN1CCN(CC2CO2)CC1` (centres undefined), the survivor count (T/C endpoint: median survival time, dose: 1.0 mg/kg/injection, schedule: Q01DX011 (ip), vehicle: saline, higher T/C = longer survival) is listed as 7 of 8 and the survivor count under setting [3] is recorded as 8 of 8.
In the case of `OCC1OC(n2cnc3c(=S)nc[nH]c32)C(O)C1O` (centres undefined), the survivor count is 5 of 8 (T/C endpoint: mean tumor weight (est.), dose: 6.25 mg/kg/injection, schedule: Q01DX011 (ip), vehicle: other, higher T/C = larger tumour); 5 of 8 (T/C endpoint: mean tumor weight (est.), dose: 12.5 mg/kg/injection, schedule: Q01DX011 (ip), vehicle: other, higher T/C = larger tumour); 4 of 8 (T/C endpoint: mean tumor weight, dose: 25.0 mg/kg/injection, schedule: Q01DX011 (ip), vehicle: other, higher T/C = larger tumour); 1 of 8 (T/C endpoint: mean tumor weight, dose: 50.0 mg/kg/injection, schedule: Q01DX011 (ip), vehicle: other, higher T/C = larger tumour); 5 of 8 (T/C endpoint: median survival time, dose: 6.25 mg/kg/injection, schedule: Q01DX011 (ip), vehicle: other, higher T/C = longer survival); 5 of 8 (T/C endpoint: median survival time, dose: 12.5 mg/kg/injection, schedule: Q01DX011 (ip), vehicle: other, higher T/C = longer survival). The survivor count (T/C endpoint: median survival time, dose: 25.0 mg/kg/injection, schedule: Q01DX011 (ip), vehicle: other, higher T/C = longer survival) is 4 of 8 and 6 of 8; the survivor count (T/C endpoint: median survival time, dose: 50.0 mg/kg/injection, schedule: Q01DX011 (ip), vehicle: other, higher T/C = longer survival) was 1 of 8; the survivor count (T/C endpoint: median survival time, dose: 100.0 mg/kg/injection, schedule: Q01DX011 (ip), vehicle: other, higher T/C = longer survival) was 0 of 8; the survivor count (T/C endpoint: median survival time, dose: 200.0 mg/kg/injection, schedule: Q01DX011 (ip), vehicle: other, higher T/C = longer survival) is 0 of 8; the survivor count (T/C endpoint: median survival time, dose: 400.0 mg/kg/injection, schedule: Q01DX011 (ip), vehicle: other, higher T/C = longer survival) is listed as 0 of 8. Where the note is “T/C endpoint: median survival time, dose: 3.13 mg/kg/injection, schedule: Q01DX011 (ip), vehicle: other, higher T/C = longer survival”, the T/C is 127 % of control [7 of 8 alive].
On to `COc1cc([C@@H]2c3cc4c(cc3[C@@H](OC3OC5COC(C)OC5C(O)C3O)[C@H]3COC(=O)[C@H]23)OCO4)cc(OC)c1O` (some centres undefined), for which the survivor count (T/C endpoint: mean tumor weight (est.), dose: 10.0 mg/kg/injection, schedule: Q01DX011 (ip), vehicle: saline, higher T/C = larger tumour) was 2 of 8.
Turning to `COc1cc([C@@H]2c3cc4c(c(O)c3C[C@H]3COC(=O)[C@@H]32)OCO4)cc(OC)c1OC`, for the setting “T/C endpoint: mean tumor weight (est.), dose: 1.0 mg/kg/injection, schedule: Q01DX011 (ip), vehicle: Klucel (hydroxypropylcellulose) (HPC), evaluated on day 12, higher T/C = larger tumour”, the T/C was 129 % of control. For the same molecule, under “T/C endpoint: mean tumor weight (est.), dose: 4.0 mg/kg/injection, schedule: Q01DX011 (ip), vehicle: Klucel (hydroxypropylcellulose) (HPC), higher T/C = larger tumour”, the survivor count is reported as 1 of 8.
For the molecule `O=C(O)C1CSCN1` (centres undefined), the T/C is, setting by setting: (T/C endpoint: median survival time, dose: 12.5 mg/kg/injection, schedule: Q#BDX045 (ip), vehicle: sodium bicarbonate, higher T/C = longer survival) 135 % of control; (T/C endpoint: median survival time, dose: 25.0 mg/kg/injection, schedule: Q#BDX045 (ip), vehicle: sodium bicarbonate, higher T/C = longer survival) 139 % of control; (T/C endpoint: median survival time, dose: 50.0 mg/kg/injection, schedule: Q#BDX045 (ip), vehicle: sodium bicarbonate, higher T/C = longer survival) 138 % of control.
In the case of `O=c1[nH]cc(F)c(=O)n1C1OC(CO)C(O)C1O` (centres undefined), the survivor count is 8 of 8 (T/C endpoint: median survival time, dose: 150.0 mg/kg/injection, schedule: Q01DX011 (ip), vehicle: saline, higher T/C = longer survival) and 7 of 8 (T/C endpoint: median survival time, dose: 300.0 mg/kg/injection, schedule: Q01DX011 (ip), vehicle: saline, higher T/C = longer survival).
For `COC(=O)Nc1nc2ccc(C(=O)c3cccs3)cc2[nH]1`, under “T/C endpoint: median survival time, dose: 50.0 mg/kg/injection, schedule: Q03DX008 (ip), vehicle: other, higher T/C = longer survival”, the survivor count is listed as 10 of 10. Besides, the T/C is 134 % of control (T/C endpoint: median survival time, dose: 50.0 mg/kg/injection, schedule: Q## X005 (ip), vehicle: other, higher T/C = longer survival); 133 % of control (T/C endpoint: median survival time, dose: 60.0 mg/kg/injection, schedule: Q## X005 (ip), vehicle: other, higher T/C = longer survival); 137 % of control [8 of 10 alive] (T/C endpoint: median survival time, dose: 70.0 mg/kg/injection, schedule: Q## X005 (ip), vehicle: other, higher T/C = longer survival).
Turning to `Nc1nc(SCc2ccccc2)c2[nH]cnc2n1`, the survivor count (T/C endpoint: mean tumor weight (est.), dose: 0.78 mg/kg/injection, schedule: Q01DX011 (ip), vehicle: Klucel (hydroxypropylcellulose) (HPC), higher T/C = larger tumour) is given as 5 of 8; the survivor count (T/C endpoint: mean tumor weight (est.), dose: 3.12 mg/kg/injection, schedule: Q01DX011 (ip), vehicle: saline, higher T/C = larger tumour) was 5 of 8; the survivor count (T/C endpoint: mean tumor weight (est.), dose: 6.25 mg/kg/injection, schedule: Q01DX011 (ip), vehicle: Klucel (hydroxypropylcellulose) (HPC), higher T/C = larger tumour) was 5 of 8; the survivor count (T/C endpoint: mean tumor weight (est.), dose: 12.5 mg/kg/injection, schedule: Q01DX011 (ip), vehicle: Klucel (hydroxypropylcellulose) (HPC), higher T/C = larger tumour) was 0 of 8; the survivor count (T/C endpoint: mean tumor weight (est.), dose: 12.5 mg/kg/injection, schedule: Q01DX011 (ip), vehicle: saline, higher T/C = larger tumour) was 5 of 8; the survivor count (T/C endpoint: mean tumor weight, dose: 6.25 mg/kg/injection, schedule: Q01DX011 (ip), vehicle: Klucel (hydroxypropylcellulose) (HPC), higher T/C = larger tumour) is given as 3 of 8. Moreover, the survivor count reads like this: (T/C endpoint: mean tumor weight, dose: 12.5 mg/kg/injection, schedule: Q01DX011 (ip), vehicle: Klucel (hydroxypropylcellulose) (HPC), higher T/C = larger tumour) 1 of 8; under setting [4], 5 of 8; (T/C endpoint: median survival time, dose: 0.78 mg/kg/injection, schedule: Q01DX011 (ip), vehicle: saline, higher T/C = longer survival) 7 of 8; (T/C endpoint: median survival time, dose: 1.56 mg/kg/injection, schedule: Q01DX011 (ip), vehicle: Klucel (hydroxypropylcellulose) (HPC), higher T/C = longer survival) 7 of 8; (T/C endpoint: median survival time, dose: 3.12 mg/kg/injection, schedule: Q01DX011 (ip), vehicle: saline, higher T/C = longer survival) 5 of 8; (T/C endpoint: median survival time, dose: 6.25 mg/kg/injection, schedule: Q01DX011 (ip), vehicle: Klucel (hydroxypropylcellulose) (HPC), higher T/C = longer survival) 3 of 8 and 5 of 8. The survivor count was 0 of 8 and 1 of 8 (T/C endpoint: median survival time, dose: 12.5 mg/kg/injection, schedule: Q01DX011 (ip), vehicle: Klucel (hydroxypropylcellulose) (HPC), higher T/C = longer survival); 5 of 8 (T/C endpoint: median survival time, dose: 12.5 mg/kg/injection, schedule: Q01DX011 (ip), vehicle: saline, higher T/C = longer survival). The T/C (T/C endpoint: median survival time, dose: 0.39 mg/kg/injection, schedule: Q01DX011 (ip), vehicle: Klucel (hydroxypropylcellulose) (HPC), higher T/C = longer survival) was 127 % of control [7 of 8 alive]; the T/C under setting [4] is 129 % of control [7 of 8 alive]; the T/C (T/C endpoint: median survival time, dose: 3.12 mg/kg/injection, schedule: Q01DX011 (ip), vehicle: Klucel (hydroxypropylcellulose) (HPC), evaluated on day 12, higher T/C = longer survival) was 125 % of control [7 of 8 alive]; the T/C (T/C endpoint: median survival time, dose: 3.12 mg/kg/injection, schedule: Q01DX011 (ip), vehicle: Klucel (hydroxypropylcellulose) (HPC), evaluated on day 50, higher T/C = longer survival) was 146 % of control.
As to `CS(=O)(=O)OCC(O)C(O)COS(C)(=O)=O` (centres undefined), the survivor count is 4 of 8 under setting [1] and 5 of 8 under setting [2].
